The list does not hold the whole screen: it gathers tests that were run many times, whatever their T/C, doses with no T/C, and many T/C values between a quarter and a half above the control. Further doses and runs are listed elsewhere. T/C is the treated group as % of the vehicle group. Some doses have a count of surviving animals in place of a T/C: the source holds a T/C of zero for them, seemingly a mark for toxic or unscored doses. Some survivor counts are full or nearly so, which does not show that the dose was tolerated: survival well below the control is almost never listed, so the zero probably covers shortened survival too. Counts of survivors are from the toxicity check (mostly the fifth day) where no day follows; animals may have died later. Schedule codes are those of the source, taken here to give the interval after Q, in days (D) or hours (H), and the number of doses after X. Some entries hold several experiments; the values are given in rising order. Some structures stand for samples that the source files as different forms (salt, stereo form or complex); doses refer to the form tested. Where survival is the endpoint, this PubChem deposit counts one and a half times the control or more as active, and values a quarter to a half above the control carry no call in these data; other NCI protocols may use other cut-offs. Peptide text beside a SMILES is read from it. * marks the point of attachment. Cbz = O=C(OCc1ccccc1)*
Tested on: BDF1 mice, B16 melanoma ip, median survival T/C
Test: NCI In Vivo Anticancer Drug Screen. Data for tumor model B16 Melanoma (intraperitoneal) in B6D2F1 (BDF1) mice
Details: T/C endpoint: median survival time, higher T/C = longer survival
How it was run: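 Values are ratios of treated (T) to vehicle-control (C) measurements of survival or tumor size in tumor-bearing mice.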

[1] = dose: 100.0 mg/kg/injection, schedule: Q01DX009 (ip), vehicle: saline with Tween-80
[2] = dose: 200.0 mg/kg/injection, schedule: Q01DX009 (ip), vehicle: saline with Tween-80
[3] = dose: 400.0 mg/kg/injection, schedule: Q01DX009 (ip), vehicle: saline with Tween-80
[4] = dose: 50.0 mg/kg/injection, schedule: Q01DX009 (ip), vehicle: saline with Tween-80
[5] = dose: 100.0 mg/kg/injection, schedule: Q01DX009 (ip), vehicle: saline
[6] = dose: 100.0 mg/kg/injection, schedule: Q01DX009 (ip), vehicle: Klucel (hydroxypropylcellulose) (HPC)
[7] = dose: 200.0 mg/kg/injection, schedule: Q01DX009 (ip), vehicle: Klucel (hydroxypropylcellulose) (HPC)
[8] = dose: 200.0 mg/kg/injection, schedule: Q01DX009 (ip), vehicle: saline
[9] = dose: 400.0 mg/kg/injection, schedule: Q01DX009 (ip), vehicle: saline
[10] = dose: 400.0 mg/kg/injection, schedule: Q04DX003 (ip), vehicle: saline with Tween-80
[11] = dose: 100.0 mg/kg/injection, schedule: Q04DX003 (ip), vehicle: saline with Tween-80
[12] = dose: 200.0 mg/kg/injection, schedule: Q04DX003 (ip), vehicle: saline with Tween-80
[13] = dose: 25.0 mg/kg/injection, schedule: Q01DX009 (ip), vehicle: saline
[14] = dose: 400.0 mg/kg/injection, schedule: Q04DX003 (ip), vehicle: saline
[15] = dose: 400.0 mg/kg/injection, schedule: Q01DX009 (ip), vehicle: Klucel (hydroxypropylcellulose) (HPC)

Structure (SMILES): COc1ccc(NC(=O)Oc2ccccc2-c2ccccc2)cc1
- survivor count [1]: 10 of 10
- survivor count [2]: 10 of 10
- survivor count [3]: 10 of 10

Structure (SMILES): Nc1ccn(C2OC(COC(=O)C34CC5CC(CC(C5)C3)C4)C(O)C2O)c(=O)n1 (centres undefined)
- survivor count [4]: 9 of 10 and 10 of 10
- survivor count [1]: 9 of 10
- survivor count [2]: 2 of 10

Structure (SMILES): CCC(C)C(C(=O)OC1CCN(C)CC1)c1ccccc1 (centres undefined)
- survivor count [5]: 8 of 10

Structure (SMILES): CC1=NCCc2c1cc1c([nH]c3ccccc31)c2C
- T/C [4]: 128 % of control
- survivor count [1]: 9 of 10

Structure (SMILES): O=[N+]([O-])c1ccc([I+]c2ccccc2)cc1
- survivor count (dose: 50.0 mg/kg/injection, schedule: Q01DX009 (ip), vehicle: Klucel (hydroxypropylcellulose) (HPC)): 10 of 10
- survivor count [4]: 8 of 10
- survivor count [6]: 0 of 10
- survivor count [7]: 0 of 10

Structure (SMILES): CNCCOC(c1ccccc1)c1ccccc1C (centres undefined)
- survivor count [5]: 1 of 10
- survivor count [8]: 0 of 10
- survivor count [9]: 0 of 10

Structure (SMILES): CSCCC(NC(=O)C(Cc1ccccc1)NC(=O)OCc1ccccc1)C(=O)O (stereo not drawn) (Cbz-Phe-Met-OH; configuration not given here)
- survivor count [2]: 9 of 10
- survivor count [3]: 9 of 10

Structure (SMILES): CC(C)COC(=O)c1ccc(NC(=O)Nc2ccccc2Cl)cc1
- survivor count [4]: 10 of 10
- survivor count [1]: 10 of 10
- survivor count [2]: 10 of 10

Structure (SMILES): CCCCN(C)N=Nc1c(C(N)=O)n[nH]c1C
- survivor count [1]: 9 of 10
- survivor count [10]: 8 of 10

Structure (SMILES): COc1cccc2c1C(=O)c1c(O)c3c(c(O)c1C2=O)C[C@@](O)(C(=O)COC(=O)Cc1ccccc1)C[C@@H]3OC1CC(N)C(O)C(C)O1 (some centres undefined)
- survivor count (dose: 4.0 mg/kg/injection, schedule: Q01DX009 (ip), vehicle: saline with Tween-80): 10 of 10
- survivor count (dose: 8.0 mg/kg/injection, schedule: Q01DX009 (ip), vehicle: saline with Tween-80): 10 of 10
- survivor count (dose: 16.0 mg/kg/injection, schedule: Q01DX009 (ip), vehicle: saline with Tween-80): 3 of 10 and 9 of 10

Structure (SMILES): S=C(NNc1ccccc1)Nc1ccccc1
- survivor count [6]: 9 of 10
- survivor count [7]: 5 of 10

Structure (SMILES): CCOC(=O)Nc1ccccc1
- survivor count (dose: 400.0 mg/kg/injection, schedule: Q04DX003 (ip), vehicle: gum acacia): 10 of 10

Structure (SMILES): CCOC(=O)N1c2ccccc2C=CC1OCC (centres undefined)
- survivor count (dose: 50.0 mg/kg/injection, schedule: Q04DX003 (ip), vehicle: Klucel (hydroxypropylcellulose) (HPC)): 9 of 10
- survivor count (dose: 100.0 mg/kg/injection, schedule: Q04DX003 (ip), vehicle: Klucel (hydroxypropylcellulose) (HPC)): 7 of 10
- survivor count [11]: 2 of 10
- survivor count [12]: 0 of 10
- survivor count [10]: 0 of 10

Structure (SMILES): NC(CCC(=O)NC(CS)C(=O)NCC(=O)O)C(=O)O (centres undefined)
- T/C [13]: 126 % of control

Structure (SMILES): CCOCCc1ccccn1
- survivor count (dose: 100.0 mg/kg/injection, schedule: Q04DX003 (ip), vehicle: saline): 10 of 10
- survivor count (dose: 200.0 mg/kg/injection, schedule: Q04DX003 (ip), vehicle: saline): 10 of 10
- survivor count [14]: 9 of 10

Structure (SMILES): CN1NCc2cncnc21
- survivor count [3]: 7 of 10

Structure (SMILES): N=C(N)SCCCN
- T/C [5]: 137 % of control
- survivor count [9]: 0 of 10
- survivor count [14]: 1 of 10

Structure (SMILES): CC(C)CC(Br)C(=O)NCC(=O)O (centres undefined)
- survivor count [1]: 10 of 10
- survivor count [2]: 10 of 10
- survivor count [3]: 10 of 10

Structure (SMILES): CC(N)Cc1ccccc1 (centres undefined)
- survivor count [8]: 0 of 10
- survivor count [9]: 0 of 10

Structure (SMILES): COc1cc(OC)c(/C=C/c2cc[n+](C)c3ccccc23)c(OC)c1
- survivor count (dose: 6.0 mg/kg/injection, schedule: Q01DX009 (ip), vehicle: saline): 7 of 10

Structure (SMILES): CC(=O)O.[Pb]
- survivor count (dose: 25.0 mg/kg/injection, schedule: Q04DX003 (ip), vehicle: saline with Tween-80): 8 of 10
- survivor count (dose: 50.0 mg/kg/injection, schedule: Q04DX003 (ip), vehicle: saline with Tween-80): 8 of 10
- survivor count [11]: 6 of 10
- survivor count [12]: 6 of 10

Structure (SMILES): Cc1ccc(N=NN(C)C)cc1
- survivor count [1]: 9 of 10

Structure (SMILES): O=C(CN1CCCCC1)Nc1cccc(C(F)(F)F)c1
- survivor count [15]: 8 of 10

Structure (SMILES): C=C1C(C)C2C(Cc3ccccc3)NC(=O)C23OC(=O)/C=C\CC(=O)CCC(C)C/C=C/C3C1O (centres undefined)
- T/C (dose: 5.0 mg/kg/injection, schedule: Q01DX009 (ip), vehicle: Klucel (hydroxypropylcellulose) (HPC)): 139 % of control
- survivor count (dose: 10.0 mg/kg/injection, schedule: Q01DX009 (ip), vehicle: Klucel (hydroxypropylcellulose) (HPC)): 5 of 10
- survivor count (dose: 20.0 mg/kg/injection, schedule: Q01DX009 (ip), vehicle: Klucel (hydroxypropylcellulose) (HPC)): 0 of 10

Structure (SMILES): S=C(N=Nc1ccccc1)NNc1ccccc1
- survivor count (dose: 75.0 mg/kg/injection, schedule: Q01DX009 (ip), vehicle: saline with Tween-80): 8 of 10
- survivor count (dose: 150.0 mg/kg/injection, schedule: Q01DX009 (ip), vehicle: saline with Tween-80): 4 of 10

Structure (SMILES): S=c1[nH]nc(NC2CCCCC2)s1
- survivor count [4]: 6 of 6
- survivor count [6]: 9 of 10
- survivor count [1]: 6 of 6
- survivor count [2]: 6 of 6
- survivor count (dose: 400.0 mg/kg/injection, schedule: Q04DX003 (ip), vehicle: Klucel (hydroxypropylcellulose) (HPC)): 6 of 10

Structure (SMILES): Brc1cc(Br)cc(-c2nnc(-c3cccc4ccccc34)o2)c1
- survivor count [6]: 10 of 10
- survivor count [15]: 9 of 10

Structure (SMILES): Brc1ccc(-c2csc(Nc3nc(-c4ccc(Br)cc4)cs3)n2)cc1
- survivor count [1]: 10 of 10
- survivor count [2]: 10 of 10
- survivor count [10]: 10 of 10

Structure (SMILES): Cc1nn(CCO)c(C)c1N=[N+]([O-])c1c(C)nn(CCO)c1C
- survivor count (dose: 30.0 mg/kg/injection, schedule: Q01DX011 (ip), vehicle: saline with Tween-80): 10 of 10
- survivor count (dose: 60.0 mg/kg/injection, schedule: Q01DX011 (ip), vehicle: saline with Tween-80): 10 of 10

Structure (SMILES): CCCCCCCCN(C)N=Nc1ccc(Cl)cc1C(=O)O
- survivor count [2]: 10 of 10

Structure (SMILES): Nc1n[n+](-c2ccc(Cl)cc2)no1
- T/C (dose: 25.0 mg/kg/injection, schedule: Q01DX009 (ip), vehicle: water): 125 % of control
- survivor count (dose: 100.0 mg/kg/injection, schedule: Q01DX009 (ip), vehicle: water): 2 of 10

Structure (SMILES): Oc1cc2ccccc2c(-c2c(O)c(O)cc3ccccc23)c1O
- survivor count [2]: 8 of 10
- survivor count [3]: 2 of 10

Structure (SMILES): ClCCCN1CCCCC1CCl (centres undefined)
- T/C (dose: 5.56 mg/kg/injection, schedule: Q01DX009 (ip), vehicle: water): 129 and 146 % of control
- T/C (dose: 6.25 mg/kg/injection, schedule: Q01DX009 (ip), vehicle: saline): 132 % of control
- T/C (dose: 12.5 mg/kg/injection, schedule: Q04DX003 (ip), vehicle: saline): 140 % of control
- survivor count (dose: 18.8 mg/kg/injection, schedule: Q01DX009 (ip), vehicle: water): 10 of 10
- survivor count [13]: 10 of 10
- survivor count (dose: 25.0 mg/kg/injection, schedule: Q04DX003 (ip), vehicle: saline): 10 of 10
- survivor count (dose: 50.0 mg/kg/injection, schedule: Q01DX009 (ip), vehicle: saline): 0 of 10
- survivor count (dose: 50.0 mg/kg/injection, schedule: Q04DX003 (ip), vehicle: saline): 7 of 10

Reference: PubChem BioAssay AID192 (DTP/NCI, 2004)
